The results in this text go back to publication PMC9106453.

Sequences of proteins named here, by UniProt entry; tags and fusion partners are left off. Residues count along the entry.
UniProt Q92743, residues 23-480: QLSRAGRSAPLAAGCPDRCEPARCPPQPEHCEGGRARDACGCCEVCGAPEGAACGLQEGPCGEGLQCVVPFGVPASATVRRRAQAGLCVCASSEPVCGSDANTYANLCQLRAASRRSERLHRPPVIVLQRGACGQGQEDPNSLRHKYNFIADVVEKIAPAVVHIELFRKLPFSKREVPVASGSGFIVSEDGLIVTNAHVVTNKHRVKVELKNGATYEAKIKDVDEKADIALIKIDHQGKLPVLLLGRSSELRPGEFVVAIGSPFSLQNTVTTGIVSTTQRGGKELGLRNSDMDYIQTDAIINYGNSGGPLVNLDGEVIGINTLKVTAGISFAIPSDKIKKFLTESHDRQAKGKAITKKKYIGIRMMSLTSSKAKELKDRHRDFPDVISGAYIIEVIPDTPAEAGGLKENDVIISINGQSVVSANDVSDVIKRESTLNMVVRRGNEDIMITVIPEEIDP
UniProt P05019, residues 49-118: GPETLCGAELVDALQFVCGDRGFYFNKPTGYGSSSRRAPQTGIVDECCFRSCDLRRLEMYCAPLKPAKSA

Assay [1] concerns the target Htra1-HA (UniProt Q92743). The assay is described as follows: co-IP; as a1, with AG1024 (IGF-1R antagonist) added; concentration for this experiment not stated; only the binder purified.
For assay [2], the target named is Htra1-HA (UniProt Q92743). The assay is described as follows: co-IP; HEK 293T-derived wild-type or Htra1 material incubated with human IGF-1 at 4°C for 2 hours; HtrA1 immunoprecipitated overnight; IGF-1 detected on the blot with an IGF-1 antibody; only the binder purified.

No constants are given. Whether binding was seen depends on the method and setting. In cells and extracts the contact can be indirect. Some results given as binding are weak or reduced against the parent protein; the word gives no strength.

Turning to “human IGF-1 (from UniProt P05019 49-118) (ligand)”, the binding entry in assay [1] is on record as “no binding (condition: with AG1024)”; in assay [2], “binds”.
